Test [1] concerns the target recombinant ferredoxin (Fd) from Leptolyngbya boryana (Leptolyngbya boryana). The experiment in a line: pull-down; Fd coupled to CNBr-activated Sepharose 4B; mixed with stromal proteins in 20 mM potassium phosphate pH 6.0; washed, eluted with the same buffer with 0.2 M NaCl; western blots after BN-PAGE; only the target purified. On the technique in general: In western blotting, separated proteins are transferred to a membrane and probed.

For test [2] the target is unchanged. The experiment in a line: pull-down; Fd coupled to CNBr-activated Sepharose 4B; mixed with stromal proteins in 20 mM potassium phosphate pH 8.0; washed, eluted with the same buffer with 0.2 M NaCl; western blots after BN-PAGE; only the target purified.

No constants are given. Whether binding was seen depends on the method and setting. Binding seen in cells or lysates may run through a third protein. Binding can be weak; no strength is given.

B1: nitrite reductase (NiR), spinach (enzyme, UniProt P05314 33-594)
chain: CQKAVSPAAETAAVSPSVDAARLEPRVEERDGFWVLKEEFRSGINPAEKVKIEKDPMKLFIEDGISDLATLSMEEVDKSKHNKDDIDVRLKWLGLFHRRKHHYGRFMMRLKLPNGVTTSEQTRYLASVIKKYGKDGCADVTTRQNWQIRGVVLPDVPEIIKGLESVGLTSLQSGMDNVRNPVGNPLAGIDPHEIVDTRPFTNLISQFVTANSRGNLSITNLPRKWNPCVIGSHDLYEHPHINDLAYMPATKNGKFGFNLLVGGFFSIKRCEEAIPLDAWVSAEDVVPVCKAMLEAFRDLGFRGNRQKCRMMWLIDELGMEAFRGEVEKRMPEQVLERASSEELVQKDWERREYLGVHPQKQQGLSFVGLHIPVGRLQADEMEELARIADVYGSGELRLTVEQNIIIPNVENSKIDSLLNEPLLKERYSPEPPILMKGLVACTGSQFCGQAIIETKARALKVTEEVQRLVSVTRPVRMHWTGCPNSCGQVQVADIGFMGCMTRDENGKPCEGADVFVGGRIGSDSHLGDIYKKAVPCKDLVPVVAEILINQFGAVPREREEAE
With B1, the binding entry in test [1] and in test [2] was “binds” each time.

B2: ferredoxin-NADP+ oxidoreductase (FNR), spinach (enzyme, UniProt P00455 56-369)
chain: QIASDVEAPPPAPAKVEKHSKKMEEGITVNKFKPKTPYVGRCLLNTKITGDDAPGETWHMVFSHEGEIPYREGQSVGVIPDGEDKNGKPHKLRLYSIASSALGDFGDAKSVSLCVKRLIYTNDAGETIKGVCSNFLCDLKPGAEVKLTGPVGKEMLMPKDPNATIIMLGTGTGIAPFRSFLWKMFFEKHDDYKFNGLAWLFLGVPTSSSLLYKEEFEKMKEKAPDNFRLDFAVSREQTNEKGEKMYIQTRMAQYAVELWEMLKKDNTYFYMCGLKGMEKGIDDIMVSLAAAEGIDWIEYKRQLKKAEQWNVEVY
With B2, the binding entry in test [1] and in test [2] was “binds” in each case.
